Test [1] has as its target Sos1 (UniProt Q62245). Description: co-immunoprecipitation from NIH-3T3 lysates, immunoblotting. A general note: In western blotting, separated proteins are transferred to a membrane and probed.
Test [2] has as its target Sos1 (UniProt Q62245). Description: co-immunoprecipitation and far-Western blotting.

Chains of the proteins cited; added tags and fusions are not shown.
UniProt Q60631: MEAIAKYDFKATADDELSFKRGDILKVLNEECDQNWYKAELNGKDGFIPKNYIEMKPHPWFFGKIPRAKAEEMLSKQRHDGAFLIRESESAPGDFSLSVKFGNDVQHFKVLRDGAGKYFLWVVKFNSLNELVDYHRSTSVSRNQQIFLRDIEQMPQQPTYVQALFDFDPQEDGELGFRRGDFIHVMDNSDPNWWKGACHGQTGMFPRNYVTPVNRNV

No constants are given. Whether binding was seen depends on the method and setting. Binding seen in cells or lysates may run through a third protein. Some binding calls cover weakened binding; strength is not graded here.

Take Grb2 (from UniProt Q60631 1-217): the binding entry in test [1] and in test [2] was “binds” in each case.

Source of the values: US7135320.
